Assay results taken from article PMC12789345.
No constants are given. Whether binding was seen depends on the method and setting. In cells and extracts the contact can be indirect. Some results given as binding are weak or reduced against the parent protein; the word gives no strength.

Sequences of proteins named here, by UniProt entry; tags and fusion partners are left off.
UniProt Q04207: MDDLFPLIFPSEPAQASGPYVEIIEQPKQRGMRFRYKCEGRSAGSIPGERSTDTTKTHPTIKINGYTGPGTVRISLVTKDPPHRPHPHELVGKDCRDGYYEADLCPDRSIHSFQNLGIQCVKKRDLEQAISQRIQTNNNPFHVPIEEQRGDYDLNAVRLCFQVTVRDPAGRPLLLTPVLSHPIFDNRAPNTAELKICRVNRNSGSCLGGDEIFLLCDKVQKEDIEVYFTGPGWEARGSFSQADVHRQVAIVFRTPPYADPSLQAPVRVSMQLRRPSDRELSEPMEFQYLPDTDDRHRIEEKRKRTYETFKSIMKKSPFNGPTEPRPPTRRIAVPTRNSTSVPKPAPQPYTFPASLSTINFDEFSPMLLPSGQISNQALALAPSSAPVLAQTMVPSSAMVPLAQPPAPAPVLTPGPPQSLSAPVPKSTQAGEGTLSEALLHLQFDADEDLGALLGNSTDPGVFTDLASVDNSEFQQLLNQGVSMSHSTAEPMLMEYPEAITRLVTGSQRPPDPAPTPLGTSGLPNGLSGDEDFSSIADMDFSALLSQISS

Molecular target: NF-κB p65 (mouse (endogenous in spinal cord NSCs of newborn C57BL/6 mice)) (UniProt Q04207)
Assay: co-IP; NSC lysates immunoprecipitated with anti-NF-κB p65 antibody on protein A+G magnetic beads, 4°C overnight, blotted for Keap1 and Nrf2; normal rabbit IgG as negative control

binding: binds
B1: Nuclear transcription factor erythroid-2 related factor 2 (Nrf2) (protein, UniProt Q60795 1-597)
chain: MMDLELPPPGLQSQQDMDLIDILWRQDIDLGVSREVFDFSQRQKDYELEKQKKLEKERQEQLQKEQEKAFFAQFQLDEETGEFLPIQPAQHIQTDTSGSASYSQVAHIPKQDALYFEDCMQLLAETFPFVDDHESLALDIPSHAESSVFTAPHQAQSLNSSLEAAMTDLSSIEQDMEQVWQELFSIPELQCLNTENKQLADTTAVPSPEATLTEMDSNYHFYSSISSLEKEVGNCGPHFLHGFEDSFSSILSTDDASQLTSLDSNPTLNTDFGDEFYSAFIAEPSDGGSMPSSAAISQSLSELLDGTIEGCDLSLCKAFNPKHAEGTMEFNDSDSGISLNTSPSRASPEHSVESSIYGDPPPGFSDSEMEELDSAPGSVKQNGPKAQPAHSPGDTVQPLSPAQGHSAPMRESQCENTTKKEVPVSPGHQKAPFTKDKHSSRLEAHLTRDELRAKALHIPFPVEKIINLPVDDFNEMMSKEQFNEAQLALIRDIRRRGKNKVAAQNCRKRKLENIVELEQDLGHLKDEREKLLREKGENDRNLHLLKRRLSTLYLEVFSMLRDEDGKPYSPSEYSLQQTRDGNVFLVPKSKKPDTKKN
